Data taken from paper PMC9239096.
Negatives hold for the conditions tested. Tags and fusion partners may be left off the protein sequences shown.

System: T1, KdpE-MBP (Sinorhizobium fredii CCBAU45436 (SF4))
T1 sequence (looked up): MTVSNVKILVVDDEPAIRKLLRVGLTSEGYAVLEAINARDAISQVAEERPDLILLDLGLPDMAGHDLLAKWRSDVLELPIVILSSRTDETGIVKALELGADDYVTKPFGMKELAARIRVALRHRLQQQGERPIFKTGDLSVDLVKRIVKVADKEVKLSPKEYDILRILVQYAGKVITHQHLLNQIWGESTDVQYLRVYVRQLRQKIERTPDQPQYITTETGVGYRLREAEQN
Experiment: EMSA
Details: 5-50 uM protein, 12.3 nM probe; 25 mM Tris-HCl pH 8.0, 0.5 mg/mL BSA, 0.1 mg/mL sonicated salmon sperm DNA, 5% glycerol, 0.05% DDM; 10 uL, 20 C, 30 min; 6% native PAGE; recombinant protein; residues 1-232; protein details: MBP (pMAL-c5x, N-terminal, with GGGGS linker); label: Cy5 (5' end, primer); probe letters rebuilt from the primers and the genome

Row | Sequence | binding result
1 | GCGGCCGCCTTTTGAAGGACGAACCATGAGGGATTGAAACGATCAGCCGCCACAGGATTTCCACAATGCCGATTCATCTGATGCAGACTTCCGCCCCACGACATCTCCGCTTGGTCGTCGTCAGGACAGAAATCTCCGGCGAGGAGCGCTCTGCACCTGCCTCTGCGCGAGCGGCAAGGCATATGGCGCAACGCCCGGCTAAAATCAATGCTTCTTGCGCATGCCGACCTCGGCGGCACCTCACGTCTCGTTCCGAACGGGGCCGGACCCTACTTCAAAATTCCCGCAAGCGGTATGCTCTTGTGAAAGAAAAGCATGGGCTCCAAAGGCGACGCACCGAGGGTC (double strand) [Probe_kup] | no binding
2 | GGCTGTTTTTTCCTTGGCTCCGGCGATTGCGTCCTCTCCGCTGCGCGAAGGCCCGTTTGGCACACGTTAAACGGGCTGCATCATCTTATTCCTTCTTCAACTACGATCAAAGGAACCAACAAGTTTCGGCGCAGTTTCCTGGTGATGCGCAGCGCTTCGACACGAATTTTCCGATATTTCAGTTGCATCCGATGGACGCTTTGAACGATGTAATGAGCCGGACTCGCCCGGCGGGCATGCGACCCGGCGACACCCTTGCGGGATTGCGCTTCTCGTGGCGCTGGCGCGGGTTCTTTCGACAGCGCCGTGCGTCTTTTCAGGCGAAAGGTCGCTGTCGCACTTGATCTGCTGCATGCTCTCATTCCTTAGATCGATTCCGATTTAAGGAAACAGGCAGCAGGGCCCTCGTTCGACCCGTGTTGCTCCAGGTATTGCCC (double strand) [Probe_trk] | no binding
